Experimental findings from paper PMC12799961 are described below.

The chains behind the UniProt entries cited, without tags or fusion partners. Where a name states a change or a piece, a line headed by the entry shows the natural chain unless it says otherwise.
UniProt Q9NZN5: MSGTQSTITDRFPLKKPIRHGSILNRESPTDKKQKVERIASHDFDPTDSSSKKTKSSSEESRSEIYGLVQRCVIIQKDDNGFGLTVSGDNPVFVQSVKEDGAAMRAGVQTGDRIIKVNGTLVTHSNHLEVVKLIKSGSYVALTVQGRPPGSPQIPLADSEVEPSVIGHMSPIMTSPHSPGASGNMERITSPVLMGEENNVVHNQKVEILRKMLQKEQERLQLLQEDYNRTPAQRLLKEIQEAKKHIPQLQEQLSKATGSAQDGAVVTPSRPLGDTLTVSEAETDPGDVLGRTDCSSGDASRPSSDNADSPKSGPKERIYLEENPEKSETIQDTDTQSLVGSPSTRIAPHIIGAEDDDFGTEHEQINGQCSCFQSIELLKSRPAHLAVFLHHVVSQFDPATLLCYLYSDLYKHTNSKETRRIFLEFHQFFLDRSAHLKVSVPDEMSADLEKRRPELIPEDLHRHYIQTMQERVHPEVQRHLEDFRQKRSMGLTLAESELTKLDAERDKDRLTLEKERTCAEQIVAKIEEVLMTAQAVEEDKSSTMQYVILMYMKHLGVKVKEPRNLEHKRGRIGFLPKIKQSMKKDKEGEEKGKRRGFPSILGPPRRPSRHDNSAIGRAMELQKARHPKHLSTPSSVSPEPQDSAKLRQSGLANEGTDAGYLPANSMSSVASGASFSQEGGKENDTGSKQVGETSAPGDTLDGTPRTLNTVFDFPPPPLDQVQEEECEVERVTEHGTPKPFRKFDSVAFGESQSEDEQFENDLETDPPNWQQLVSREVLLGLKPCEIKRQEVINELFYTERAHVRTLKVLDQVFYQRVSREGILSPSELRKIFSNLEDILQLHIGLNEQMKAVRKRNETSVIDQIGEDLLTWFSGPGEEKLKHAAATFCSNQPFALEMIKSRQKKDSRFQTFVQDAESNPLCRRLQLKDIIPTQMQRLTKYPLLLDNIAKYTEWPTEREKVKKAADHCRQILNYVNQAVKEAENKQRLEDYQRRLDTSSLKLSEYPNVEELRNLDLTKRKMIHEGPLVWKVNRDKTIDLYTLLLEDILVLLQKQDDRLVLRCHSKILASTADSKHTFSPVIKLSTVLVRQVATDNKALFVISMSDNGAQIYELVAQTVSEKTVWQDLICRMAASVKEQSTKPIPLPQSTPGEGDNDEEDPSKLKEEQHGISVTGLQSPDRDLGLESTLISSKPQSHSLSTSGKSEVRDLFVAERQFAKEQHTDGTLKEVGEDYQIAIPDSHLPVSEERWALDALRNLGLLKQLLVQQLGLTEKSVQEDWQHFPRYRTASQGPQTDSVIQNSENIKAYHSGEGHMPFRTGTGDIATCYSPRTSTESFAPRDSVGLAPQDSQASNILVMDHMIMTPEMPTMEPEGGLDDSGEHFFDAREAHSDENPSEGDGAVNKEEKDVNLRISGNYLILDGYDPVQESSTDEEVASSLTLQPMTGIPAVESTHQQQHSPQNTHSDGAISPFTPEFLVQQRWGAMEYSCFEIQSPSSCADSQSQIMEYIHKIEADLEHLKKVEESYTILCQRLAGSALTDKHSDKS

Test [1] addresses Myc-LARG-S1288A (UniProt Q9NZN5). Description: co-IP; U87 MG cells transfected with Myc-LARG-WT or Myc-LARG-S1288A for 24 h, then with GFP-LARG-WT, 48 h more; Myc-tagged LARG immunoprecipitated, blot for GFP.
Test [2] addresses Myc-LARG-WT (leukemia-associated RhoGEF, ARHGEF12, wild type) (UniProt Q9NZN5). Described as above.

Results are given in words; binding and its absence hold for the method and conditions named. Binding seen in cells or lysates may run through a third protein. Some entries that bind do so weakly or less than the wild type.

In the case of “GFP-LARG-WT (from UniProt Q9NZN5 1-1544)”, the binding result in test [1] and in test [2] was “binds” each time.
